In paper PMC7890977:
Results are given in words; binding and its absence hold for the method and conditions named. In cells and extracts the contact can be indirect.

Molecular target: T1, Syntaxin 6, endogenous in HEK-APP cells (human (endogenous in HEK293)) (UniProt O43752)
T1 sequence: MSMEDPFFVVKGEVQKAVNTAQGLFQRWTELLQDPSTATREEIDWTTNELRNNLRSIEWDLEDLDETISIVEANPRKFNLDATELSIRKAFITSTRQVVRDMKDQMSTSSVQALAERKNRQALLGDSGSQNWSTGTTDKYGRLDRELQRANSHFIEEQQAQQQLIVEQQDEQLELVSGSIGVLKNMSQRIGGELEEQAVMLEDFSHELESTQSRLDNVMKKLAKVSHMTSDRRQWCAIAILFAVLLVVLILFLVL
Experiment: co-IP; 100 μg protein extract of HEK-APP cells (lysis buffer 25 mM Tris HCl pH 7.5, 150 mM NaCl, 0.5% Triton X-100); 1 μg mAb anti-CERTL (3A1-C1), anti-Aβ/APP 6E10 or anti-syntaxin 6 (isotype control), 1 h at room temperature; immune complexes brought down with anti-mouse secondary antibodies; Western blot with 6E10 and rabbit pAb anti-CERTs

Ceramide transfer protein, long isoform (CERTL), endogenous in HEK-APP cells (from UniProt Q9Y5P4-1 1-624)
binding: no binding
